Assay results published in publication PMC11068891.
These are yes or no findings as the source states them, for the method shown. Binding seen in cells or lysates may run through a third protein. Here binding means that the protein was enriched with, or labelled near, the bait; the list need not be complete. For part of these data: A no says only that the protein was not detected with the bait. Tags and fused reporters may be left off the sequences shown.

By UniProt entry, the sequences of proteins in these tests, tags left out.
UniProt Q8IKF0: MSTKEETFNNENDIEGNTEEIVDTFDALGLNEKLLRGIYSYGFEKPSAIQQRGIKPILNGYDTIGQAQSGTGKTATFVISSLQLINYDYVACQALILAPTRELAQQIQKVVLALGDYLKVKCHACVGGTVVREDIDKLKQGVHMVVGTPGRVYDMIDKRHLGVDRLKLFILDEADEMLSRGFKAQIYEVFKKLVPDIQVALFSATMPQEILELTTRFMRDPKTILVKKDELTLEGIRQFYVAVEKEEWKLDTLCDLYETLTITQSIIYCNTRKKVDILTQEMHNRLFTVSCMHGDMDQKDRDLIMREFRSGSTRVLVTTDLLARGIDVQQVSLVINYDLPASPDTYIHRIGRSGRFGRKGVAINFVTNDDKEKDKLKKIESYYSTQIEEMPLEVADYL

T1: PfDOZI::GFP (P. falciparum (endogenous in 3D7 parasites)) (UniProt O97285)
T1 sequence: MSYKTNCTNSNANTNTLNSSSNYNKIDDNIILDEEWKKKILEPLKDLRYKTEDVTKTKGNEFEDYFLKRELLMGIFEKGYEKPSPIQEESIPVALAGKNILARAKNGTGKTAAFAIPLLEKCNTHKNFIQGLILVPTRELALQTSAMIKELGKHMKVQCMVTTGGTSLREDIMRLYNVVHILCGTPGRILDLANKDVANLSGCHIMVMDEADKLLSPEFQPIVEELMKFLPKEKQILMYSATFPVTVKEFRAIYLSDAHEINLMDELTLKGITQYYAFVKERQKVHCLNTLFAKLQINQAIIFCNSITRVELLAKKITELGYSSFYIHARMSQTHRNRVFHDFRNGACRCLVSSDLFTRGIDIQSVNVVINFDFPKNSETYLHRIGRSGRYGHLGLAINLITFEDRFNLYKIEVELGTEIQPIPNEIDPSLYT

T2: PfGBP2::GFP (P. falciparum (endogenous in 3D7 parasites)) (UniProt Q8IJX3)
T2 sequence: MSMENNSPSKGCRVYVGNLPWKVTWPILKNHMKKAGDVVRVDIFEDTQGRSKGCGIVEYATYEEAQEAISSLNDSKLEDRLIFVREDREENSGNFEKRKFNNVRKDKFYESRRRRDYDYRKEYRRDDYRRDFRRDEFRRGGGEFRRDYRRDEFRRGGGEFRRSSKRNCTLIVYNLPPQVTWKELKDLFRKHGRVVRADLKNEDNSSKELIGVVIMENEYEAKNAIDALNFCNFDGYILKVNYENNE

T3: PfDCP2::GFP (P. falciparum (endogenous in 3D7 parasites)) (UniProt Q8IEM5)
T3 sequence: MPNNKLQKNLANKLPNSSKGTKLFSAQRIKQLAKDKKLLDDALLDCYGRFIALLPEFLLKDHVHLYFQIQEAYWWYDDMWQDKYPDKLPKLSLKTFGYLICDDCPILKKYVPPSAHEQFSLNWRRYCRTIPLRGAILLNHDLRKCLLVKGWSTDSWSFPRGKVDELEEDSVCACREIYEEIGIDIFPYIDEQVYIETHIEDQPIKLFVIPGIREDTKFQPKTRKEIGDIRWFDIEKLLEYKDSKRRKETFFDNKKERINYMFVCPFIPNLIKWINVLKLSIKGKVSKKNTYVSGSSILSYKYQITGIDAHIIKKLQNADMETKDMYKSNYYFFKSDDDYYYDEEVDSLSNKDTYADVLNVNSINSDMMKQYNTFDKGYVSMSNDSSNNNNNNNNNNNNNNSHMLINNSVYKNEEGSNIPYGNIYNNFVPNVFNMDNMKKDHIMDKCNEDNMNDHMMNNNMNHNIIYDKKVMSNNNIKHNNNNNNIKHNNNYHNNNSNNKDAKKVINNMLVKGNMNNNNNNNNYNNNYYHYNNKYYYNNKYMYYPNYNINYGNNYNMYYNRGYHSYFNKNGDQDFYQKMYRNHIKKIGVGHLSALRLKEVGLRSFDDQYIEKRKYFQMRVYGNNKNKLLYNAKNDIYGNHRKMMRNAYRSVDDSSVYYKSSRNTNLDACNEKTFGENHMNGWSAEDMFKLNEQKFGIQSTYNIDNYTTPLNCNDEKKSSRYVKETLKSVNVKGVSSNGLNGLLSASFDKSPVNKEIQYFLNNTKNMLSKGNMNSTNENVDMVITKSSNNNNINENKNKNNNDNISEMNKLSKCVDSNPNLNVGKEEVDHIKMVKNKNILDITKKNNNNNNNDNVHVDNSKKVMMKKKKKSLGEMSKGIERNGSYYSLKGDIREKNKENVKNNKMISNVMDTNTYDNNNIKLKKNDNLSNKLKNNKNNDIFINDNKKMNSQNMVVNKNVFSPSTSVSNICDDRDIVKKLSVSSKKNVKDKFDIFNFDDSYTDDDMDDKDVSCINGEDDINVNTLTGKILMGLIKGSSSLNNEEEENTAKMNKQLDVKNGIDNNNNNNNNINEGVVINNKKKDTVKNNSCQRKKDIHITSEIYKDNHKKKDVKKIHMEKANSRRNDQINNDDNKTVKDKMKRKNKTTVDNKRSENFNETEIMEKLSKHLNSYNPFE

B1: G-strand binding protein 2 (protein, UniProt Q8IJX3 1-246)
chain: T2 sequence
B2: PfDOZI (protein, UniProt O97285 1-433)
chain: T1 sequence
B3: RACK1 kinase (protein, UniProt Q8IBA0 1-323)
chain: MMDNIKEAEISLRGVLEGGHSDWVTSVSTPTDPKLKTIVSASRDKKLIVWNINTDDDSGEIGTAKKSLTGHSQAINDVSISSDGLFALSGSWDHSVRLWDLSLGETIRSFIGHTSDVFSVSFSPDNRQIVSASRDKTIKLWNTLAQCKYTITDQQHTDWITCVRFSPSPNQAIIVSCGWDKLVKVWNLKNCDLNKNLEGHTGVLNTVTISPDGSLCASGGKDGVAKLWDVKEGKHLYSLETGSTINSLCFSPCDYWLCAATDRFIRIWNLESKLIISEIYPVKQSKIGVPWCTSLTWSANGQLLYCGSTDGNIYVYEVKKHSV

Columns and labels:
[1] = biological target: T1, PfDOZI::GFP (P. falciparum (endogenous in 3D7 parasites)); assay: affinity purification with mass spectrometry; GFP-Trap beads with lysate of purified PfDOZI::GFP gametocytes (day 5), native conditions; same buffers (300 mM NaCl, 0.1% NP40), 4 °C, 2 h; agarose beads as control; LC-MS/MS in triplicate, SAINT, FDR 1%
[2] = biological target: T1, PfDOZI::GFP (P. falciparum (endogenous in 3D7 parasites)); assay: affinity purification with mass spectrometry; GFP-Trap beads with lysate of PfDOZI::GFP schizonts under normal culture, native conditions; lysis and wash buffer 300 mM NaCl, 20 mM HEPES pH 7.9, 2 mM MgCl2, 0.2 mM EDTA, 0.1% NP40, 0.5 mM DTT; 4 °C, 2 h; agarose beads as control; LC-MS/MS in triplicate, SAINT, FDR 1%
[3] = biological target: T1, PfDOZI::GFP (P. falciparum (endogenous in 3D7 parasites)); assay: condition: only schizonts under nutrient starvation; affinity purification with mass spectrometry; GFP-Trap beads with lysate of PfDOZI::GFP schizonts under nutrient starvation (stressed schizonts), native conditions; same buffers (300 mM NaCl, 0.1% NP40), 4 °C, 2 h; agarose beads as control; LC-MS/MS in triplicate, SAINT, FDR 1%
[4] = biological target: T2, PfGBP2::GFP (P. falciparum (endogenous in 3D7 parasites)); assay: affinity purification with mass spectrometry; GFP-Trap beads with lysate of PfGBP2::GFP stressed schizonts; same buffers (300 mM NaCl, 0.1% NP40), 4 °C, 2 h; agarose beads as control; LC-MS/MS, SAINT, FDR 1%
[5] = biological target: T3, PfDCP2::GFP (P. falciparum (endogenous in 3D7 parasites)); assay: affinity purification with mass spectrometry; GFP-Trap beads with lysate of PfDCP2::GFP parasites at the schizont stage; same buffers (300 mM NaCl, 0.1% NP40), 4 °C, 2 h; agarose beads as control; LC-MS/MS, SAINT, FDR 1%
[6] = biological target: T1, PfDOZI::GFP (P. falciparum (endogenous in 3D7 parasites)); assay: condition: only schizonts under nutrient starvation; affinity purification with mass spectrometry; GFP-Trap beads with lysate of PfDOZI::GFP schizonts under nutrient starvation (stressed schizonts), native conditions; same buffers (300 mM NaCl, 0.1% NP40), 4 °C, 2 h; agarose beads as control; LC-MS/MS in triplicate, SAINT, FDR 1%; remark: listed apart in the source

Molecule | binding [1] | binding [2] | binding [3] | binding [4] | binding [5] | binding [6]
eIF4A (from UniProt Q8IKF0 1-398) | binds | binds | no binding | binds |  | 
B1 | binds | binds |  |  | no binding | no binding
B2 |  |  |  | binds | binds | 
B3 |  | binds |  |  |  | no binding
